Assay results published in paper PMC7411133, “Phosphorylations of the Abutilon Mosaic Virus Movement Protein Affect Its Self-Interaction, Symptom Development, Viral DNA Accumulation, and Host Range” (Frontiers in Plant Science, 2020).
Numbering of substitutions follows the chain as printed. Names may count otherwise. These are yes or no findings as the source states them, for the method shown. Binding seen in cells or lysates may run through a third protein. Some entries that bind do so weakly or less than the wild type. Where a sequence is shown, tags or fusion partners need not be part of it.

How the values were obtained:
Assay in all cases: FRET or BRET; acceptor photobleaching FRET in living N. benthamiana leaf epidermal cells, 3 dpai; acceptor mVenus, donor mTurquoise2; four layouts (NN, NC, CN, CC); without and with local AbMV (DNA-A + DNA-BΔMP) infection; ROIs along the plasma membrane; p19 co-infiltrated
[1] = target: AbMV movement protein, full-length, wild type (MP^WT), fused to mVenus or mTurquoise2 (Abutilon mosaic virus) (UniProt P21946)
[2] = target: AbMV movement protein, full-length, T221A/S223A/S250A (MP^AAA), fused to mVenus or mTurquoise2 (Abutilon mosaic virus) (UniProt P21946)
[3] = target: AbMV movement protein, full-length, T221D/S223D/S250D (MP^DDD), fused to mVenus or mTurquoise2 (Abutilon mosaic virus) (UniProt P21946)

B1: AbMV movement protein, full-length, wild type (MP^WT), fused to mVenus or mTurquoise2 (natural protein)
chain: MDSQLVNPPNAFNYIESHRDEYQLSHDLTEIILQFPSTAAQLTARLSRSCMKIDHCVIEYRQQVPINATGSVIVEIHDKRMTDNESLQASWTFPIRCNIDLHYFSASFFSLKDPIPWKLYYKVCDTNVHQRTHFAKFKGKLKLSTAKHSVDIPFRAPTVRILSKQFSEKDVDFSHVDYGKWERKPIRCASMSRIGLRGPIEIRPGESWASRSTIGTAQPDTDSEMENELHPYRHLNRLGTSLLDPGESASIVGDQRAEPNITMSMGQLNELVRTAVQECVNSNCQASQAKSLK
notes: Movement protein (MP; BC1) of Abutilon mosaic virus, full-length; Two copies expressed from one T-DNA (pFRETtv-2-in-1), one with mVenus and one with mTurquoise2, in four layouts (NN, NC, CN, CC); each copy carries one fluorescent protein at one end; also called BC1; mVenus::MP^WT; source: N. benthamiana leaf epidermis, transiently expressed after agro-infiltration, in living cells; not shown: …
binding [1]: binds

B2: AbMV movement protein, full-length, T221A/S223A/S250A (MP^AAA), fused to mVenus or mTurquoise2 (natural protein, Abutilon mosaic virus, UniProt P21946 1-293, looked up)
chain: B1 chain with T221A, S223A, S250A
notes: Movement protein (MP; BC1) of Abutilon mosaic virus, full-length; Two copies expressed from one T-DNA (pFRETtv-2-in-1), one with mVenus and one with mTurquoise2, in four layouts (NN, NC, CN, CC); each copy carries one fluorescent protein at one end; also called mVenus::MP^AAA; MP^AAA::mVenus; source: N. benthamiana leaf epidermis, transiently expressed after agro-infiltration, in living cells; …
binding [2]: binds

B3: AbMV movement protein, full-length, T221D/S223D/S250D (MP^DDD), fused to mVenus or mTurquoise2 (natural protein, Abutilon mosaic virus, UniProt P21946 1-293, looked up)
chain: B1 chain with T221D, S223D, S250D
notes: Movement protein (MP; BC1) of Abutilon mosaic virus, full-length; Two copies expressed from one T-DNA (pFRETtv-2-in-1), one with mVenus and one with mTurquoise2, in four layouts (NN, NC, CN, CC); each copy carries one fluorescent protein at one end; also called mVenus::MP^DDD; MP^DDD::mVenus; source: N. benthamiana leaf epidermis, transiently expressed after agro-infiltration, in living cells; …
binding [3]: binds
